Data taken from doi:10.1101/348953.

By UniProt entry, the sequences of proteins in these tests, tags left out. Where a name states a change or a piece, a line headed by the entry shows the natural chain unless it says otherwise.
UniProt P15116: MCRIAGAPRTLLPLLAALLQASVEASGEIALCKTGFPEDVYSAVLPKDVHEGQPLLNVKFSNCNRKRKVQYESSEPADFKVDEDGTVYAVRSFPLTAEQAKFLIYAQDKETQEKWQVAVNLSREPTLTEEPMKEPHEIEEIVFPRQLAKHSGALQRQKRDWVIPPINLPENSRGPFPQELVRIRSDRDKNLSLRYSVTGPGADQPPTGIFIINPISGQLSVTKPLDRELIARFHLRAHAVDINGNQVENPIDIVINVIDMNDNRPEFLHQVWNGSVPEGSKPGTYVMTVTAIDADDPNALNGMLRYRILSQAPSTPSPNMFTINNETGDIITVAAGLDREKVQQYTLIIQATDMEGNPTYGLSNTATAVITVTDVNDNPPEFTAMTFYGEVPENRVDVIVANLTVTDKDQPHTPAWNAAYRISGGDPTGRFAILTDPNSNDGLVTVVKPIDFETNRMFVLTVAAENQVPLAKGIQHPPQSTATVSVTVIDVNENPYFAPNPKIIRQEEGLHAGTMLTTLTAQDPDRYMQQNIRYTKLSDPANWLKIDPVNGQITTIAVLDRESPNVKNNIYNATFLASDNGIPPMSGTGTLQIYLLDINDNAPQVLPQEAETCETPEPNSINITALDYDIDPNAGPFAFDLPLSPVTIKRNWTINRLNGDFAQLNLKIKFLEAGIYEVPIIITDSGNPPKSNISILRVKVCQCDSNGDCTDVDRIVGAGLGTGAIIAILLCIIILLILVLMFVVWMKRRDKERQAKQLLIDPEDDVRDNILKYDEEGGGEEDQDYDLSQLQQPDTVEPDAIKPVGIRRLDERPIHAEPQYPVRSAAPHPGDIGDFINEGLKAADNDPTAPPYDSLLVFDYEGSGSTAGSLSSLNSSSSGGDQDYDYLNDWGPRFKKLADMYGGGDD

Molecular target: Cdh2-BioID2 (mouse N-cadherin with BioID2-HA fused to the C-terminal tail) (mouse) (UniProt P15116)
Test: proximity labelling

B1: p120-catenin (CTNND1) (protein, UniProt P30999 1-938)
chain: MDDSEVESTASILASVKEQEAQFEKLTRALEEERRHVSAQLERVRVSPQDANSLMANGTLTRRHQNGRFVGDADLERQKFSDLKLNGPQDHNHLLYSTIPRMQEPGQIVETYTEEDPEGAMSVVSVETTDDGTTRRTETTVKKVVKTMTTRTVQPVPMGPDGLPVDASAVSNNYIQTLGRDFRKNGNGGPGPYVGQAGTATLPRNFHYPPDGYGRHYEDGYPGGSDNYGSLSRVTRIEERYRPSMEGYRAPSRQDVYGPQPQVRVGGSSVDLHRFHPEPYGLEDDQRSMGYDDLDYGMMSDYGTARRTGTPSDPRRRLRSYEDMIGEEVPPDQYYWAPLAQHERGSLASLDSLRKGMPPPSNWRQPELPEVIAMLGFRLDAVKSNAAAYLQHLCYRNDKVKTDVRKLKGIPILVGLLDHPKKEVHLGACGALKNISFGRDQDNKIAIKNCDGVPALVRLLRKARDMDLTEVITGTLWNLSSHDSIKMEIVDHALHALTDEVIIPHSGWEREPNEDCKPRHIEWESVLTNTAGCLRNVSSERSEARRKLRECDGLVDALIFIVQAEIGQKDSDSKLVENCVCLLRNLSYQVHREIPQAERYQEALPTVANSTGPHAASCFGAKKGKDEWFSRGKKPTEDPANDTVDFPKRTSPARGYELLFQPEVVRIYISLLKESKTPAILEASAGAIQNLCAGRWTYGRYIRSALRQEKALSAIAELLTSEHERVVKAASGALRNLAVDARNKELIGKHAIPNLVKNLPGGQQNSSWNFSEDTVVSILNTINEVIAENLEAAKKLRETQGIEKLVLINKSGNRSEKEVRAAALVLQTIWGYKELRKPLEKEGWKKSDFQVNLNNASRSQSSHSYDDSTLPLIDRNQKSDKKPDREEIPMSNMGSNTKSLDNNYSTLNERGDHNRTLDRSGDLGDMEPLKGAPLMQKI
  binding: binds

B2: αT(Testes)-catenin (CTNNA3) (protein, UniProt Q65CL1 1-895)
chain: MSAETPITLNMDTQDLQIQTFTVEKLLEPLIIQVTTLVNCPQNPSNRKKGRSKRARVLLASVEEATWNLLDKGEMIAKEATVLKEELAAALQEVRKESKALKVSAERFTDDPCYLPKREAVVQAARALLAAVTRLLVLADMIDVMCLLQHVSSFQRTFESLKNVSNKSDLQRTYQKLGKELESLDYLAFKRQQDLKSPSQRDEIAGARATLKENSPLLHSICSACLEHSDVASLKASKDTVCEEIQNALDVISNASQGIQNAPAPPEPQAATLGSAFDELENLIVLNPLTVTEEDVRPSLEKRLEAIISGAALLADSSCTRDLHRERIIAECNAIRQALQDLLTEYMSNTGKTERSNTLNTAIVNMSKKTRDLRRQLRKAIIDHISDSFLDTTVPLLVLIEAAKNGRVKEIKDYAAIFHEHTGRLVEVANLACSMSTNEDGIKIVRIAANHLETLCPQIINAALALASRPKSQVVKNTMEMYKRTWEHYIHVLTEAVDDITSIDDFLAVSESHILEDVNKCIIALRDQDADNLDRAAGAIRGRAARVAHIVAGEMDSYEPGAYTEGVMRNVNFLTSTVIPEFVTQVNVALDALSKNSLTALDDNQFVDISKKIYDTIHDIRCSVMMIRTPEELEDVSDLEDDHEVRSHTSIQTEGKTDRAKMTQLPEAEKEKIAEQVADFKKVKSKLDAEIEIWDDTSNDIIVLAKKMCMIMMEMTDFTRGKGPLKHTTDVIYAAKMISESGSRMDVLARQIANQCPDPPCKQDLLAYLEQIKFYSHQLKICSQVKAEIQNLGGELIVSALDSVTSLIQAAKNLMNAVVQTVKMSYIASTKIIRIQSSAGPRHPVVMWRMKAPAKKPLIKREKPEETWAAVRRGSAKKKIHPVQVMSEFRGRQVY
  binding: binds

No constants are given. Whether binding was seen depends on the method and setting. Binding seen in cells or lysates may run through a third protein. Here binding means that the protein was enriched with, or labelled near, the bait; the list need not be complete.
